Values of other authors, collected in US6413974B1, “6,9,-disubstituted 2-[trans-(4-aminocyclohexyl) amino] purines” (Aventis Pharmaceuticals Inc., priority 1998, dated 2002).

System: 60 human tumour cell lines
Settings: read-out: average IC50, proliferation of 60 human tumour cell lines; NCI screen, nine tumour types, Meijer et al.; cited from earlier work

In the case of `CCC(CO)Nc1nc(NCc2ccccc2)c2ncn(C(C)C)c2n1` (stereo not shown) [107, 466 rescovitine, 2-(1-ethyl-2-hydroxyethylamino)-6-benzylamino-9-isopropylpurine], the IC50 is given as 16 µM.
